Data published in US20100021384A1 (INSTITUT PASTEUR, published 2010).
Where a chain is given by its changes, count along the chain named. Results are given in words; binding and its absence hold for the method and conditions named. Some entries that bind do so weakly or less than the wild type. Values belong to the binder of their own block, whether it stands above or below them.

By UniProt entry, the sequences of proteins in these tests, tags left out.
UniProt P14136: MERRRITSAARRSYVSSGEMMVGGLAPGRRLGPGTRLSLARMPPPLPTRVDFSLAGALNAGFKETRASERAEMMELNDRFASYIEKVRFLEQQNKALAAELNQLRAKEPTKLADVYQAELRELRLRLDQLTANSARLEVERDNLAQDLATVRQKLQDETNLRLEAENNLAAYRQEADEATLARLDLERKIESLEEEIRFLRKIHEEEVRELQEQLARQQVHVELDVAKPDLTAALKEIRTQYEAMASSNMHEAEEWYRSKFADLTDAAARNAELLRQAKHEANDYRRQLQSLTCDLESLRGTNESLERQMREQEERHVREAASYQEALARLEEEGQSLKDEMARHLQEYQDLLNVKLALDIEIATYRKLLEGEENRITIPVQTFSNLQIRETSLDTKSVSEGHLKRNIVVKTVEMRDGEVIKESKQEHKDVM

What was measured:
[1] = target: GFAP (glial fibrillary acidic protein) from normal human brain (human) (UniProt P14136); assay: ELISA screening of periplasmic clones on coated GFAP
[2] = target: GFAP (glial fibrillary acidic protein) from normal human brain (human) (UniProt P14136); assay: ELISA on coated GFAP
[3] = target: GFAP (glial fibrillary acidic protein) from normal human brain (human) (UniProt P14136); assay: competition ELISA in solution (Friguet method), GFAP in solution, GFAP-coated plate

binding [1]: binds
binding [2]: binds
B1: VHH-E9 (VHH)
VHH: DVQLQVSGGGSVQPGGSLRLSCAASGFTFSNYAMYWLRQAPGKGIEWVSRIGPGGSHTEYADSVKGRFTISRDNAKNTLSLQMNSLKPEDTAVYYCAITQQGSGRGQGTQVTVSS
notes: Alpaca VHH selected by ribosome display against human GFAP; expressed in E. coli periplasm from pET22 with a His-tag and purified by IMAC; same molecule; also called anti-GFAP VHH-E9; native VHH-E9; not shown: His-tag (His6) from pET22 expression

binding [1]: binds
binding [2]: binds
binding [3]: binds
B2: VHH-E3 (VHH)
VHH: B1 VHH with S25P, T69A, V93A, Q107R
notes: Alpaca VHH selected by ribosome display against human GFAP; expressed in E. coli periplasm from pET22 with a His-tag and purified by IMAC; also called anti-GFAP VHH-E3; not shown: His-tag from pET22 expression

binding [1]: binds
binding [2]: binds
B3: VHH-A10 (VHH)
VHH: DVQLRASGGGLVQPGGSLRLSCAASGFTFSNYAMYWLRQAPGKGIEWVSRIGPGGSHTEYADSVKGRFTISRDNAKNTLSLQMNSLKPEDTAVYYCAITQQGSGRGQETQVTVSSAAALEHHHHHH
notes: Alpaca VHH selected by ribosome display against human GFAP; expressed in E. coli periplasm from pET22 with a His-tag and purified by IMAC; also called anti-GFAP VHH-A10; not shown: His-tag from pET22 expression
